Source: paper doi:10.1101/2025.10.13.682252
Results are given in words; binding and its absence hold for the method and conditions named. Binding seen in cells or lysates may run through a third protein. Some entries that bind do so weakly or less than the wild type.

Amino acid sequences for entries named in this document (tags omitted). A change or cut given only in a name is not applied to a line headed by its entry. Chains listed by the source or under a name are the forms on record and can include a tag or linker.
UniProt O60566: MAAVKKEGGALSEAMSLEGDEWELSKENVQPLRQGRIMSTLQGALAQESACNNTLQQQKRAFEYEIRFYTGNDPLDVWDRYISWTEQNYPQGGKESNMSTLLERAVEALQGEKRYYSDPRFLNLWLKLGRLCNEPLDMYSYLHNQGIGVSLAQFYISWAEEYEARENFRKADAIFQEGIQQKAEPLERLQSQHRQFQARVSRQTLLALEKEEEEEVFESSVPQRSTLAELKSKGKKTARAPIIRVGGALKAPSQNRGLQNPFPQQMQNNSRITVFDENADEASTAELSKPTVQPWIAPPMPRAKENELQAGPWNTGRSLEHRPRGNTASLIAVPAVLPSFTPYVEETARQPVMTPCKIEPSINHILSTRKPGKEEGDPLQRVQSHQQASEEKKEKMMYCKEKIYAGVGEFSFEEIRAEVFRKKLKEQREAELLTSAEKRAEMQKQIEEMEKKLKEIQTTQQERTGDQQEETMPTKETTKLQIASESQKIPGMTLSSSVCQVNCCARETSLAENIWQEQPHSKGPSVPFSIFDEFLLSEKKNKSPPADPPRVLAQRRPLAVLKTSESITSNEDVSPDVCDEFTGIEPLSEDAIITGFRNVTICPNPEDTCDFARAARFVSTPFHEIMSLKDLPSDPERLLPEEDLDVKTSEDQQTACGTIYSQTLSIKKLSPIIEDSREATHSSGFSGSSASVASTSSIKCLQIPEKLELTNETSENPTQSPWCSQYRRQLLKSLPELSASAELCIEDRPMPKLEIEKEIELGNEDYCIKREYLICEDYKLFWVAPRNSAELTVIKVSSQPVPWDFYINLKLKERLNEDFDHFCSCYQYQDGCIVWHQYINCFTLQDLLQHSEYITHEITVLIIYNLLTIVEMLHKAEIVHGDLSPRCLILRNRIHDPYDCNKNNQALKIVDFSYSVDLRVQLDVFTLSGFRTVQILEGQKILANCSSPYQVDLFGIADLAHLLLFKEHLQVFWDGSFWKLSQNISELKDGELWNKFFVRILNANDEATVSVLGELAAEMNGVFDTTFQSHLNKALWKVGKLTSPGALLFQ
YFP-BubR1 NNSR/4A (O60566, form named): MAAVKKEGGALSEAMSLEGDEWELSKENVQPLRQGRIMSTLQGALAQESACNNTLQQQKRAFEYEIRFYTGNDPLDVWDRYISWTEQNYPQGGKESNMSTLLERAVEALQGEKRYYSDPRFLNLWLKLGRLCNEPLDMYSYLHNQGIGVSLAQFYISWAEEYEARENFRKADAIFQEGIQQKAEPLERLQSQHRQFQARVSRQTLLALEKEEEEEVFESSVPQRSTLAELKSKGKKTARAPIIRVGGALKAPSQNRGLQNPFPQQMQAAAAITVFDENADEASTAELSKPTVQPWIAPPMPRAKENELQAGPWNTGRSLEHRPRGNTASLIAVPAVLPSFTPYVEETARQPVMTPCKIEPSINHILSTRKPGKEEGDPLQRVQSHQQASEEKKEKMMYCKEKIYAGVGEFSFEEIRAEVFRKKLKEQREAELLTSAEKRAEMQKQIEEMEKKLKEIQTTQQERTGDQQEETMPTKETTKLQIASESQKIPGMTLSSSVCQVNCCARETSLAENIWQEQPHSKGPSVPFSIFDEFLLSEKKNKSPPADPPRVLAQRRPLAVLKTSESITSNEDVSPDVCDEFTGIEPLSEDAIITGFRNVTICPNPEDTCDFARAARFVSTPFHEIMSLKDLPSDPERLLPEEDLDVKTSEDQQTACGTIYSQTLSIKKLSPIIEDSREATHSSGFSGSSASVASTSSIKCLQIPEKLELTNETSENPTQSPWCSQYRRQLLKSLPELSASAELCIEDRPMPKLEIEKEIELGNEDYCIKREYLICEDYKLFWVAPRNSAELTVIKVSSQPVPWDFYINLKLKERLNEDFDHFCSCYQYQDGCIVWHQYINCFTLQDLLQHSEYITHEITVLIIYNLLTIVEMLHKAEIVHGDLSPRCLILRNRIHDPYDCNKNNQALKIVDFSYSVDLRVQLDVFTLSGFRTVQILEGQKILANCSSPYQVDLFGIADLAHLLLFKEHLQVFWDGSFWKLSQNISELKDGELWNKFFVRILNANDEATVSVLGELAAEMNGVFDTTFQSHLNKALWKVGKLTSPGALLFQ
UniProt Q13257: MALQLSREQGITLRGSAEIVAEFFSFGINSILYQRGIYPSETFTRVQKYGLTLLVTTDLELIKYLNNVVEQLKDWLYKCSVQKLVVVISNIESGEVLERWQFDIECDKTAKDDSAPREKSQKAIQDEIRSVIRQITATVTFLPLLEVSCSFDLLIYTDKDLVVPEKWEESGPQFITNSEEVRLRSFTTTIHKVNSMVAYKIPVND

Tests used:
Experiment in all cases: co-IP
YFP-BubR1 B1TPR = YFP-BubR1 B1TPR (UniProt O60566)
[1] = target: YFP-BubR1 E134R/D137R (human) (UniProt O60566)
[2] = target: YFP-BubR1 NNSR/4A (human) (UniProt O60566)
[3] = target: YFP-BubR1 V200A/L205A (human) (UniProt O60566)
[4] = target: YFP-BubR1 W125A/L128A/C132A/M138A (human) (UniProt O60566)
[5] = target: YFP-BubR1 W22A/E23A (human) (UniProt O60566)
YFP-BubR1 W295A (human) = YFP-BubR1 W295A (human) (UniProt O60566)
YFP-BubR1 Y141A (human) = YFP-BubR1 Y141A (human) (UniProt O60566)

binding (YFP-BubR1 B1TPR): no binding
binding [1]: binds
binding [2]: binds
binding [3]: binds
binding [4]: binds
binding [5]: no binding
binding (YFP-BubR1 W295A (human)): binds
binding (YFP-BubR1 Y141A (human)): binds
Substance: Mad2 (from UniProt Q13257 1-205)
